Laboratory results as given in patent US20030219793A1.
These are yes or no findings as the source states them, for the method shown. Some entries that bind do so weakly or less than the wild type.

T1: Zmax1 cytoplasmic domain bait (entire cytoplasmic domain and a portion of the transmembrane domain) (human) (UniProt O75197)
T1 sequence: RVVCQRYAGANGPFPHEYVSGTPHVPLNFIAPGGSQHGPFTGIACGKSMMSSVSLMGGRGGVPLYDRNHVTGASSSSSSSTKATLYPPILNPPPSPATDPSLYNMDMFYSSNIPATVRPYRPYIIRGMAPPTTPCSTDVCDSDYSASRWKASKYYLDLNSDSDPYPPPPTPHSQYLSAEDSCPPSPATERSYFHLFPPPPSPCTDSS

B1: Zyxin (protein, not shown: large carriers)
chain: MAAPRPSPAISVSVSAPAFYAPQKKFGPVVAPKPKVNPFRPGDSEPPPAPGAQRAQMGRVGEIPPPPPEDFPLPPPPLAGDGDDAEGALGGAFPPPPPPIEESFPPAPLEEEIFPSPPPPPEEEGGPEAPIPPPPQPREKVSSIDLEIDSLSSLLDDMTKNDPFKARVSSGYVPPPVATPFSSKSSTKPAAGGTAPLPPWKSPSSSQPLPQVPAPAQSQTQFHVQPQPQPKPQVQLHVQSQTQPVSLANTQPRGPPASSPAPAPKFSPVTPKFTPVASKFSPGAPGGSGSQPNQKLGHPEALSAGTGSPQPPSFTYAQQREKPRVQEKQHPVPPPAQNQNQVRSPGAPGPLTLKEVEELEQLTQQLMQDMEHPQRQNVAVNELCGRCHQPLARAQPAVRALGQLFHIACFTCHQCAQQLQGQQFYSLEGAPYCEGCYTDTLEKCNTCGEPITDRMLRATGKAYHPHCFTCVVCARPLEGTSFIVDQANRPHCVPDYHKQYAPRCSVCSEPIMPEPGRDETVRVVALDKNFHMKCYKCEDCGKPLSIEADDNGCFPLDGHVLCRKCHTARAQT

What was measured:
[1] = target: T1, Zmax1 cytoplasmic domain bait (entire cytoplasmic domain and a portion of the transmembrane domain) (human); assay: yeast two-hybrid screens of brain, HeLa and TE85 prey libraries
[2] = target: T1, Zmax1 cytoplasmic domain bait (entire cytoplasmic domain and a portion of the transmembrane domain) (human); assay: yeast two-hybrid screen, Zmax1 cytoplasmic domain as bait; listed in Table 6 (Yeast Two Hybrid Results)
[3] = target: T1, Zmax1 cytoplasmic domain bait (entire cytoplasmic domain and a portion of the transmembrane domain) (human); assay: yeast two-hybrid screens

| Molecule | binding [1] | binding [2] | binding [3] |
| --- | --- | --- | --- |
| Axin (from UniProt O15169 1-862) | binds | binds | binds |
| TRIO (GTPase) (from UniProt O75962 60-3097) | – | binds | binds |
| alpha-actinin (from UniProt P12814 1-892) | binds | binds | binds |
| cytosolic thyroid hormone-binding protein (from UniProt P14618 1-531) | binds | binds | – |
| B1 | binds | binds | binds |
